For this assay, the target named is full length FIBCD1 expressed in A549 cells (human) (UniProt Q8N539). The assay is described as follows: SDS-PAGE and Western blot; lysate of sham- and FIBCD1-transfected A549 cells under reducing and non-reducing conditions, probed with anti-FIBCD1 mAb HG-HYB 12-2.

No constants are given. Whether binding was seen depends on the method and setting. Some binding calls cover weakened binding; strength is not graded here.

This is an account of results in publication PMC6153955.

B1: full length FIBCD1 expressed in A549 cells (receptor, UniProt Q8N539 1-461)
chain: MVNDRWKTMGGAAQLEDRPRDKPQRPSCGYVLCTVLLALAVLLAVAVTGAVLFLNHAHAPGTAPPPVVSTGAASANSALVTVERADSSHLSILIDPRCPDLTDSFARLESAQASVLQALTEHQAQPRLVGDQEQELLDTLADQLPRLLARASELQTECMGLRKGHGTLGQGLSALQSEQGRLIQLLSESQGHMAHLVNSVSDILDALQRDRGLGRPRNKADLQRAPARGTRPRGCATGSRPRDCLDVLLSGQQDDGVYSVFPTHYPAGFQVYCDMRTDGGGWTVFQRREDGSVNFFRGWDAYRDGFGRLTGEHWLGLKRIHALTTQAAYELHVDLEDFENGTAYARYGSFGVGLFSVDPEEDGYPLTVADYSGTAGDSLLKHSGMRFTTKDRDSDHSENNCAAFYRGAWWYRNCHTSNLNGQYLRGAHASYADGVEWSSWTGWQYSLKFSEMKIRPVREDR
Turning to B1, the binding entry is reported as “binds”.
